PubChem BioAssay AID686943 | Drosophila RNAi Screening Center, 2013

Aim: 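Search across the genome for regulators of signalling from receptor tyrosine kinase to ERK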 (primary screen)
Cells: Drosophila S2R+ haemocyte-like cells expressing YFP-tagged ERK (Rolled)
Knock-down reagent: long dsRNA against Drosophila genes
Conditions: insulin stimulation versus unstimulated cells; dose and duration not given
Measurement: 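Per-plate z-scores of phospho-ERK immunostaining normalised to YFP-tagged ERK, measured with and without insulin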
Reading the numbers: replicate 1, z-score of dpERK with insulin: higher = more active ERK per ERK-YFP after insulin
The screen tested about 23,000 reagents; shown is an unselected part of those with a known target gene and a result. 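Extra replicates exist only for a retested subset of genes; insulin dose and duration not given; both raised and lowered dpERK matter.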 The numbers tell different reagents against one gene apart. Not all columns of the deposit are shown. The record does not give: the amount of reagent, the time to read-out.

CG11426
- replicate 1, z-score of dpERK with insulin: 0.29

CG8925 #1
- replicate 1, z-score of dpERK with insulin: 0.17

CG8925 #2
- replicate 1, z-score of dpERK with insulin: 0.74

CG8925 #3
- replicate 1, z-score of dpERK with insulin: 0.34

CG15211
- replicate 1, z-score of dpERK with insulin: 3.21

Tsp2A
- replicate 1, z-score of dpERK with insulin: -0.22

CG1896
- replicate 1, z-score of dpERK with insulin: -0.33

CG43658 #1
- replicate 1, z-score of dpERK with insulin: 0.51

CG43658 #2
- replicate 1, z-score of dpERK with insulin: 0.6

Prosalpha3T
- replicate 1, z-score of dpERK with insulin: 0.51

CG15579
- replicate 1, z-score of dpERK with insulin: -0.13

CG18549
- replicate 1, z-score of dpERK with insulin: -0.39

CG13674
- replicate 1, z-score of dpERK with insulin: 1.2

sbb #1
- replicate 1, z-score of dpERK with insulin: 0.57

sbb #2
- replicate 1, z-score of dpERK with insulin: -0.26

CG15514
- replicate 1, z-score of dpERK with insulin: -0.2

Rsph4a
- replicate 1, z-score of dpERK with insulin: -0.08

CG12590
- replicate 1, z-score of dpERK with insulin: 0.17

Lgr1
- replicate 1, z-score of dpERK with insulin: 0.46

ZIPIC
- replicate 1, z-score of dpERK with insulin: 0

por
- replicate 1, z-score of dpERK with insulin: 0.6

CR42785
- replicate 1, z-score of dpERK with insulin: -0.86

Hmx #1
- replicate 1, z-score of dpERK with insulin: 0.85

Hmx #2
- replicate 1, z-score of dpERK with insulin: 1.13

Hmx #3
- replicate 1, z-score of dpERK with insulin: -0.79

Hmx #4
- replicate 1, z-score of dpERK with insulin: -4.58

CG32683 #1
- replicate 1, z-score of dpERK with insulin: 0.07

CG32683 #2
- replicate 1, z-score of dpERK with insulin: 1.81

CG32683 #3
- replicate 1, z-score of dpERK with insulin: -0.69

Lip1
- replicate 1, z-score of dpERK with insulin: -0.71

CG18420
- replicate 1, z-score of dpERK with insulin: 0.28

Sorted by “replicate 1, z-score of dpERK with insulin” (high to low): some entries from above.
CG15211
- replicate 1, z-score of dpERK with insulin: 3.21

CG43658 #1
- replicate 1, z-score of dpERK with insulin: 0.51

Tsp2A
- replicate 1, z-score of dpERK with insulin: -0.22

CG1896
- replicate 1, z-score of dpERK with insulin: -0.33
